{
  "source": "the supplement of paper PMC8728848",
  "binders": {"B1": {"name": "pilr alpha (protein)", "chain": "MLYGVTQPKHLSASMGGSVEIPFSFYYPWELATAPDVRISWRRGHFHRQSFYSTRPPSIHKDYVNRLFLNWTEGQKSGFLRISNLQKQDQSVYFCRVELDTRSSGRQQWQSIEGTKLSIT"}},
  "assay_in_all_cases": "glycan array binding signal (z-score within array); higher = stronger binding",
  "conditions_in_all_cases": "glycan notation: IUPAC condensed, linker removed",
  "key": {"[1]": {"target": "Neu5Ac(a2-6)Gal(b1-4)GlcNAc(b1-2)Man(a1-3)[Man(a1-6)]Man(b1-4)GlcNAc(b1-4)GlcNAc", "method_in_brief": "(§1)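 Arrays were curated from the Consortium for Functional Glycomics database, 3228 in total, and kept only where the protein sequence was available. Binding is expressed as a within-array Z-score. This score was averaged across arrays of the same protein sequence at different concentrations or buffers and across linkers, and negative values can be read as non-binding.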"}, "[2]": {"target": "Neu5Ac(a2-6)Gal(b1-4)GlcNAc(b1-2)Man(a1-3)[Neu5Ac(a2-3)Gal(b1-4)GlcNAc(b1-2)Man(a1-6)]Man(b1-4)GlcNAc(b1-4)GlcNAc", "method_in_brief": "as §1"}, "[3]": {"target": "Neu5Ac(a2-6)Gal(b1-4)GlcNAc(b1-2)Man(a1-3)[Neu5Ac(a2-6)Gal(b1-4)GlcNAc(b1-2)Man(a1-6)]Man(b1-4)GlcNAc(b1-4)GlcNAc", "method_in_brief": "as §1"}, "[4]": {"target": "Neu5Ac(a2-6)Gal(b1-4)GlcNAc(b1-2)Man(a1-3)[Neu5Ac(a2-6)Gal(b1-4)GlcNAc(b1-2)Man(a1-6)]Man(b1-4)GlcNAc(b1-4)[Fuc(a1-6)]GlcNAc", "method_in_brief": "as §1"}, "[5]": {"target": "Neu5Ac(a2-6)Gal(b1-4)GlcNAc(b1-2)Man(a1-6)Man(b1-4)GlcNAc(b1-4)GlcNAc", "method_in_brief": "as §1"}, "[6]": {"target": "Neu5Ac(a2-6)Gal(b1-4)GlcNAc(b1-2)Man(a1-6)[Gal(b1-4)GlcNAc(b1-2)Man(a1-3)]Man(b1-4)GlcNAc(b1-4)GlcNAc", "method_in_brief": "as §1"}, "[7]": {"target": "Neu5Ac(a2-6)Gal(b1-4)GlcNAc(b1-2)Man(a1-6)[GlcNAc(b1-2)Man(a1-3)]Man(b1-4)GlcNAc(b1-4)GlcNAc", "method_in_brief": "as §1"}, "[8]": {"target": "Neu5Ac(a2-6)Gal(b1-4)GlcNAc(b1-2)Man(a1-6)[Man(a1-3)]Man(b1-4)GlcNAc(b1-4)GlcNAc", "method_in_brief": "as §1"}, "[9]": {"target": "Neu5Ac(a2-6)Gal(b1-4)GlcNAc(b1-2)[Neu5Ac(a2-6)Gal(b1-4)GlcNAc(b1-4)]Man(a1-3)[GlcNAc(b1-4)][Neu5Ac(a2-6)Gal(b1-4)GlcNAc(b1-2)[Neu5Ac(a2-6)Gal(b1-4)GlcNAc(b1-6)]Man(a1-6)]Man(b1-4)GlcNAc(b1-4)GlcNAc", "method_in_brief": "as §1"}, "[10]": {"target": "Neu5Ac(a2-6)Gal(b1-4)GlcNAc(b1-2)[Neu5Ac(a2-6)Gal(b1-4)GlcNAc(b1-4)]Man(a1-3)[GlcNAc(b1-4)][Neu5Ac(a2-6)Gal(b1-4)GlcNAc(b1-4)Man(a1-6)]Man(b1-4)GlcNAc(b1-4)GlcNAc", "method_in_brief": "as §1"}, "[11]": {"target": "Neu5Ac(a2-6)Gal(b1-4)GlcNAc(b1-2)[Neu5Ac(a2-6)Gal(b1-4)GlcNAc(b1-6)]Man(a1-6)[Neu5Ac(a2-6)Gal(b1-4)GlcNAc(b1-2)Man(a1-3)][GlcNAc(b1-4)]Man(b1-4)GlcNAc(b1-4)GlcNAc", "method_in_brief": "as §1"}, "[12]": {"target": "Neu5Ac(a2-6)Gal(b1-4)GlcNAc(b1-3)Gal(b1-3)GlcNAc", "method_in_brief": "as §1"}, "[13]": {"target": "Neu5Ac(a2-6)Gal(b1-4)GlcNAc(b1-3)Gal(b1-4)GlcNAc", "method_in_brief": "as §1"}, "[14]": {"target": "Neu5Ac(a2-6)Gal(b1-4)GlcNAc(b1-3)Gal(b1-4)GlcNAc(b1-2)Man(a1-3)[Neu5Ac(a2-6)Gal(b1-4)GlcNAc(b1-3)Gal(b1-4)GlcNAc(b1-2)Man(a1-6)]GalNAc", "method_in_brief": "as §1"}, "[15]": {"target": "Neu5Ac(a2-6)Gal(b1-4)GlcNAc(b1-3)Gal(b1-4)GlcNAc(b1-3)Gal(b1-4)GlcNAc", "method_in_brief": "as §1"}, "[16]": {"target": "Neu5Ac(a2-6)Gal(b1-4)GlcNAc(b1-3)Gal(b1-4)GlcNAc(b1-3)Gal(b1-4)GlcNAc(b1-2)Man(a1-3)[Neu5Ac(a2-6)Gal(b1-4)GlcNAc(b1-3)Gal(b1-4)GlcNAc(b1-3)Gal(b1-4)GlcNAc(b1-2)Man(a1-6)]GalNAc", "method_in_brief": "as §1"}, "[17]": {"target": "Neu5Ac(a2-6)Gal(b1-4)GlcNAc(b1-3)Gal(b1-4)GlcNAc(b1-3)GalNAc", "method_in_brief": "as §1"}, "[18]": {"target": "Neu5Ac(a2-6)Gal(b1-4)GlcNAc(b1-3)Gal(b1-4)GlcNAc(b1-3)[Neu5Ac(a2-6)Gal(b1-4)GlcNAc(b1-3)Gal(b1-4)GlcNAc(b1-6)]GalNAc", "method_in_brief": "as §1"}, "[19]": {"target": "Neu5Ac(a2-6)Gal(b1-4)GlcNAc(b1-3)Gal(b1-4)GlcNAc(b1-6)[Gal(b1-3)]GalNAc", "method_in_brief": "as §1"}, "[20]": {"target": "Neu5Ac(a2-6)Gal(b1-4)GlcNAc(b1-3)Gal(b1-4)[Fuc(a1-3)]GlcNAc(b1-3)Gal(b1-4)[Fuc(a1-3)]GlcNAc", "method_in_brief": "as §1"}, "[21]": {"target": "Neu5Ac(a2-6)Gal(b1-4)GlcNAc(b1-3)GalNAc", "method_in_brief": "as §1"}, "[22]": {"target": "Neu5Ac(a2-6)Gal(b1-4)GlcNAc(b1-3)[Neu5Ac(a2-6)Gal(b1-4)GlcNAc(b1-6)]GalNAc", "method_in_brief": "as §1"}, "[23]": {"target": "Neu5Ac(a2-6)Gal(b1-4)GlcNAc(b1-6)GalNAc", "method_in_brief": "as §1"}, "[24]": {"target": "Neu5Ac(a2-6)Gal(b1-4)GlcNAc(b1-6)[Gal(b1-3)GlcNAc(b1-3)]Gal(b1-4)Glc", "method_in_brief": "as §1"}, "[25]": {"target": "Neu5Ac(a2-6)Gal(b1-4)GlcNAc(b1-6)[Gal(b1-3)]GalNAc", "method_in_brief": "as §1"}, "[26]": {"target": "Neu5Ac(a2-6)Gal(b1-4)GlcNAc6S", "method_in_brief": "as §1"}, "Neu5Ac(a2-6)GalNAc": {"target": "Neu5Ac(a2-6)GalNAc", "method_in_brief": "as §1"}, "[27]": {"target": "Neu5Ac(a2-6)GalNAc(b1-4)GlcNAc", "method_in_brief": "as §1"}, "[28]": {"target": "Neu5Ac(a2-6)GalNAc(b1-4)GlcNAc6S", "method_in_brief": "as §1"}, "[29]": {"target": "Neu5Ac(a2-6)GlcNAc(b1-4)GlcNAc", "method_in_brief": "as §1"}, "[30]": {"target": "Neu5Ac(a2-6)GlcNAc(b1-4)GlcNAc(b1-4)GlcNAc", "method_in_brief": "as §1"}},
  "note": "The other results are listed elsewhere or left out.",
  "data": [
    {"binder": "B1", "values": [
      {"measurement": "glycan array binding signal (z-score)", "setting": "[1]", "result": -0.359},
      {"measurement": "glycan array binding signal (z-score)", "setting": "[2]", "result": -0.588},
      {"measurement": "glycan array binding signal (z-score)", "setting": "[3]", "result": 0.135},
      {"measurement": "glycan array binding signal (z-score)", "setting": "[4]", "result": 0.206},
      {"measurement": "glycan array binding signal (z-score)", "setting": "[5]", "result": 0.961},
      {"measurement": "glycan array binding signal (z-score)", "setting": "[6]", "result": 0.767},
      {"measurement": "glycan array binding signal (z-score)", "setting": "[7]", "result": -0.276},
      {"measurement": "glycan array binding signal (z-score)", "setting": "[8]", "result": -0.475},
      {"measurement": "glycan array binding signal (z-score)", "setting": "[9]", "result": -0.465},
      {"measurement": "glycan array binding signal (z-score)", "setting": "[10]", "result": -0.01},
      {"measurement": "glycan array binding signal (z-score)", "setting": "[11]", "result": 0.09},
      {"measurement": "glycan array binding signal (z-score)", "setting": "[12]", "result": -0.564},
      {"measurement": "glycan array binding signal (z-score)", "setting": "[13]", "result": -0.317},
      {"measurement": "glycan array binding signal (z-score)", "setting": "[14]", "result": -0.229},
      {"measurement": "glycan array binding signal (z-score)", "setting": "[15]", "result": -0.453},
      {"measurement": "glycan array binding signal (z-score)", "setting": "[16]", "result": 1.89},
      {"measurement": "glycan array binding signal (z-score)", "setting": "[17]", "result": -0.457},
      {"measurement": "glycan array binding signal (z-score)", "setting": "[18]", "result": 0.102},
      {"measurement": "glycan array binding signal (z-score)", "setting": "[19]", "result": -0.479},
      {"measurement": "glycan array binding signal (z-score)", "setting": "[20]", "result": 1.16},
      {"measurement": "glycan array binding signal (z-score)", "setting": "[21]", "result": -0.365},
      {"measurement": "glycan array binding signal (z-score)", "setting": "[22]", "result": -0.456},
      {"measurement": "glycan array binding signal (z-score)", "setting": "[23]", "result": -0.956},
      {"measurement": "glycan array binding signal (z-score)", "setting": "[24]", "result": -0.839},
      {"measurement": "glycan array binding signal (z-score)", "setting": "[25]", "result": -0.677},
      {"measurement": "glycan array binding signal (z-score)", "setting": "[26]", "result": -0.249},
      {"measurement": "glycan array binding signal (z-score)", "setting": "Neu5Ac(a2-6)GalNAc", "result": -0.546},
      {"measurement": "glycan array binding signal (z-score)", "setting": "[27]", "result": -0.492},
      {"measurement": "glycan array binding signal (z-score)", "setting": "[28]", "result": -0.275},
      {"measurement": "glycan array binding signal (z-score)", "setting": "[29]", "result": -0.813},
      {"measurement": "glycan array binding signal (z-score)", "setting": "[30]", "result": -0.423}
    ]}
  ]
}
